## Library screening results

Data taken from ChEMBL document CHEMBL3988442, “University of Dundee, Small-Polar-MMV Screening Library” (2021).

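Viability assay of Plasmodium falciparum sporozoites; the read-out is not stated. The concentration is filed as 10 mM, unlikely as a test dose, so the dose is not known. Higher reads as lower viability (inferred: compounds with an IC50 in retests scored well above the rest). Strong results were mostly tested again. Of about 34,000 compounds tested this way, about 280 (0.84%) reached 50% or more in at least one test.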

Results are given as percent effect. The record does not define 0% and 100%; most values in the screen are far below 50% and negative numbers occur (in some assays of this library far below -100). Compounds were drawn at random from those tested, without regard to their results. Two or more numbers in one place are separate tests of the same structure; such repeats can differ widely.

structure | Percent Effect
CS(=O)(=O)c1nccn1CCOc1ccc(F)cc1Cl | -3.885
O=C(c1ccc(Cl)o1)N1CCCC(c2cc(C(F)(F)F)[nH]n2)C1 (centres unmarked) | -13.28
c1ccc(-c2noc3c2CN(CC2CC2)CC3)cc1 | -2.715
O=S(=O)(CC1CCCCC1)NCc1ccc(O)nc1 | -4.116
Cc1ccc(C(=O)NCCCN(C(C)C)S(C)(=O)=O)c(=O)[nH]1 | 3.195
Cc1cc(CN2CCN(C(=O)NC(C)c3cccnc3)CC2)on1 (centres unmarked) | -1.154
Cc1cc(C)n(CC(=O)N2CCC(NS(=O)(=O)c3ccccc3)CC2)n1 | -4.287
Cc1cc(C)c2nc(CN3C[C@H](CCO)[C@@H](N)C3)cc(O)c2c1 | 15.77
Cc1ccsc1CNC(=O)NC1CCCc2c1cnn2CCO (centres unmarked) | 26.2 and -18.03 and -0.6873
Cc1ccsc1C(=O)NC1CCS(=O)(=O)c2ccccc21 (centres unmarked) | -24.74 and -33.57
CCOCC(=O)N1CCC(c2cc3ncccc3c(O)n2)CC1 | -1.028
Cc1nn(C)c(C)c1CC(=O)N1CCCC(n2ccnc2)C1 (centres unmarked) | -3.993
CC(C)Oc1ncccc1CNC(=O)c1ccc(=O)[nH]n1 | 8.178
Cc1cn(Cc2ccc(F)c(F)c2)nc1N | 18.47
[H][C@@]12CN(C(C)=O)C[C@]1([H])C(=O)N(CC1CC1)C2 | -1.369
Fc1ccc(OCCCN2CCCC(Cn3cncn3)C2)cc1 (centres unmarked) | -3.015
O=C(O)c1ccc2c(c1)C1(CCCCC1)CN2C(=O)c1ccnnc1 | -7.477 and -12.25
O=C(O)C(F)(F)F.[H][C@@]12CCN(C3CCOCC3)C[C@]1([H])[C@H](C(=O)NC1CC1)CCO2 | -2.399
O=C(C1CCCC1)N1CCC2(CC1)COCCN2CC1CC1.O=C(O)C(F)(F)F | 6.921
CCc1nc2n(n1)CC(NCc1nc(Cc3ccccc3)no1)CC2 (centres unmarked) | 3.833
CC(C)(C#N)c1ccccc1CN1CCC(N2CCCC2=O)CC1 | 0.1304
O=C(O)C(F)(F)F.[H][C@@]12COC[C@]1([H])[C@H](OCc1csc(C)n1)CN2Cc1cnn(C)c1 | -17.31
[H][C@]12CC[C@@]3(N=C(c4ccccc4)NC3=O)[C@@]1([H])CN(CC1CCOCC1)C2 | -9.199
c1csc(N2CCCN(Cc3noc(C4CC4)n3)CC2)n1 | -6.989
COc1ccc(CCN2CCN(C(=O)c3scnc3C)CC2)cc1 | -9.808
CN(C)CC1CSCCCN1C(=O)c1ccc(-n2cccc2)cc1 (centres unmarked) | 4.387
Cc1cnn(C2CCCN(C(=O)CCCOc3ccccc3F)C2)c1 (centres unmarked) | 9.858
O=C(NCc1ccccc1CN1CCC(O)CC1)Nc1ccncc1 | -1.294
Cc1cc(NC(=O)CN2CCn3c(nnc3C(C)C)C2)on1 | -3.567
O=C1NCCN2CCN(C(=O)Nc3ccc(-c4ccccc4)cc3)CC12 (centres unmarked) | -23.97 and -24.61
Cc1cc(C)c2cc(CNCC3CCCO3)c3nn(C)c(=O)n3c2c1 (centres unmarked) | -2.725
Cc1nn(C)c2c(NCCCn3cccn3)ncnc12 | 4.167
CN(Cc1cnn(C)c1)C(=O)NCc1nnc2n1CCC2 | 0.2467
Cc1cnn(C2CCCN(C(=O)CCCn3ccnc3C)C2)c1 (centres unmarked) | -1.226
O=C1CN(Cc2ccc(-c3ccccc3C(=O)O)cc2)CCN1 | 4.476
O=C(N[C@@H]1CCNC[C@H]1O)c1ccc(F)c(Cl)c1 | 11.18
CCN(C)S(=O)(=O)NCC1CCN(Cc2ccccc2C)CC1 | -33.91 and -35.17
[H][C@@]12CC[C@H](Oc3ccccc3)[C@]1([H])CN(C(=O)CN(C)C)C2 | 7.335
COc1cccc(CNc2cnn(C)c(=O)c2Cl)c1 | -13.24
COc1c(CNCc2ccc(CS(C)(=O)=O)cc2)c(C)nn1C | -1.485
CN(C(=O)C1CCOCC1)[C@@H]1CCC[C@@H](N2CCOCC2)[C@@H]1O | -2.51
[H][C@@]12C[C@H](C(=O)N(C)C)CN(Cc3ccccn3)[C@]1([H])CCO2 | 1.178
[H][C@@]12CCN(Cc3cccnc3)C(=O)[C@@]1([H])CN(Cc1ccoc1)C2 | 11.62
Cc1[nH]ncc1C(=O)N1CCCC(c2ccn[nH]2)C1 (centres unmarked) | 7.65
CCN(Cc1nonc1C)C(=O)c1ccc(Br)o1 | -3.482
c1ccc2c(N3CCOCC3)cnnc2c1 | 9.358

4 of the entries, repeated:

{"structure": "CCOCC(=O)N1CCC(c2cc3ncccc3c(O)n2)CC1", "Percent Effect": -1.028}
{"structure": "c1ccc(-c2noc3c2CN(CC2CC2)CC3)cc1", "Percent Effect": -2.715}
{"structure": "O=S(=O)(CC1CCCCC1)NCc1ccc(O)nc1", "Percent Effect": -4.116}
{"structure": "Cc1nn(C)c2c(NCCCn3cccn3)ncnc12", "Percent Effect": 4.167}